# PubChem BioAssay AID2685 (National Center for Advancing Translational Sciences (NCATS), 2010)
# The list shows a part of the results. These are further read-outs of the screen, such as a control signal, another cell line or another target. No call is given for them. Most of these compounds were active or inconclusive in the main read-out, so they are no random draw. The note in brackets gives the kind of curve behind each potency; many fits are weak.
# Experiment: qHTS Assay for Lipid Storage Modulators in Drosophila S3 Cells;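 for cell number change: cells counted by Cell Tracker Red CMTPX staining in the red channel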
# Details: BODIPY lipid droplet fluorescence, 18-24 h; for cell number change: measured here: cell count max response, cells fed with added oleic acid
# Outline: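 Drosophila S3 cells got compounds at several concentrations plus oleic acid (400 uM solution). Laser-scanning cytometry with 488 nm excitation read lipid droplets at 500-530 nm and cells at 575-640 nm. Percent activity was relative to 20 uM Triacsin C.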
# [1] = measured here: lipid fluorescence (Fed channel) AC50, cells fed with added oleic acid
# [2] = measured here: cell number channel AC50, cells fed with added oleic acid
Compound,cell number change,AC50 [1],AC50 [2]
CCC(=O)c1ccc(OCc2ccccc2)c(OC)c1,6.58%,"1.46 µM [rising, full curve, poor fit]",–
COc1cc(C2Nc3ccc4ncccc4c3C3=C2C(=O)CCC3)ccc1O (stereo not drawn),–,–,"1.84 µM [rising, partial curve]"
COC(=O)C(CC(=O)c1ccc(Br)cc1)n1nc(C)cc1C (stereo not drawn),-36.2%,"29.1 µM [falling, single point]","6.51 µM [falling, partial curve, poor fit]"
Cc1ccc(NC(=O)N2CCCC2c2cccs2)cc1 (stereo not drawn),–,"23.1 µM [falling, partial curve]",–
CC(=O)Nc1ccc(NC(=O)C(C)OC(=O)c2cccs2)cc1 (stereo not drawn),-9.64%,"0.461 µM [falling, full curve, poor fit]",–
CSc1ncccc1C(=O)OCC(=O)Nc1cc(C(F)(F)F)ccc1N1CCOCC1,-31.2%,"20.6 µM [falling, single point]","14.6 µM [falling, partial curve]"
Fc1ccc(-c2onc3ccc(C4OCCO4)cc23)cc1,–,"0.651 µM [rising, single point]",–
Cc1nn(-c2ccc(F)cc2)c(N)c1C1(O)C(=O)Nc2ccccc21 (stereo not drawn),-40.3%,–,–
O=C(CN(C1CCCCC1)C1CCCCC1)N1CCc2ccccc2C1,-8.02%,–,–
COC(=O)Nc1nc(C)c(C(=O)N(C)C)s1,-2.01%,"1.84 µM [falling, full curve]",–
O=C(NCCCN1CCCC1=O)Nc1ccc([N+](=O)[O-])cc1,27.8%,"29.1 µM [falling, single point]",–
COC(=O)Cc1c[nH]c2cccc(OCC(O)CN(Cc3ccc([N+](=O)[O-])cc3)C(C)(C)C)c12 (stereo not drawn),-37.7%,–,"23.1 µM [falling, partial curve]"
Cc1ccc(S(=O)(=O)Nc2cc(=O)[nH]c(SCC(=O)Nc3cccc(C)c3)n2)cc1,-45%,"6.51 µM [falling, partial curve]","9.2 µM [falling, partial curve]"
NC(=S)N/N=C/c1coc2ccc(Br)cc2c1=O,-16.7%,"6.51 µM [falling, partial curve, poor fit]","0.116 µM [falling, full curve, poor fit]"
C=CCn1c(SCC(=O)Nc2cc(NC(C)=O)ccc2OC)nnc1-c1cccnc1,-29.3%,–,"2.06 µM [falling, full curve, poor fit]"
Cc1ccc(NC(=O)n2ncc3c(C)cccc32)c(C)c1,15.5%,–,–
COc1ccc(S(=O)(=O)N/N=C(/C)c2ccncc2)cc1OC,–,"0.651 µM [rising, partial curve, poor fit]",–
Cc1nn(Cc2ccc(C(=O)NC3CCCCC3)o2)c(C)c1Br,1.48%,"29.1 µM [rising, single point]",–
COc1ccc(OC)c(N(C(=O)c2snc(C(N)=O)c2N)C(C(=O)NCc2ccccc2)c2ccc(O)cc2)c1 (stereo not drawn),15.3%,"0.58 µM [falling, single point]",–
COc1cc2c(cc1OC)-c1cc3ccc(OC)c(OC)c3c[n+]1CC2,–,"29.1 µM [rising, single point]",–

Compound,cell number change,AC50 [1],AC50 [2]
O=C(COc1ccc(C2SCCS2)cc1)NNC(=O)C(Cl)Cl,20.4%,"51.7 µM [rising, partial curve]",–
NC(=O)c1ccc(N=Cc2ccc([N+](=O)[O-])s2)cc1,-78.5%,–,"23.1 µM [falling, single point]"
CC(C)OC(=O)Cn1c(=O)oc2ccccc21,-18.6%,–,–
CC(=O)Oc1ccc(C(=O)NCc2ccc3c(c2)OCO3)cc1,-4.67%,"29.1 µM [rising, single point]",–
COC(=O)[C@H]1[C@H]2C[C@@H]3c4[nH]c5cc(OC)ccc5c4CCN3C[C@H]2C[C@@H](OC(=O)c2cc(OC)c(OC)c(OC)c2)[C@@H]1OC,21.7%,"2.06 µM [rising, partial curve, poor fit]","1.84 µM [rising, partial curve, poor fit]"
Cc1cc(C2C(C#N)=C(N)OC3=C2C(=O)CCC3)c(C)s1 (stereo not drawn),–,"0.82 µM [falling, single point]","1.64 µM [falling, partial curve]"
CC1(C)NC(=O)N(CC(=O)OCC(=O)Nc2cccc(F)c2)C1=O,-64.7%,–,"3.66 µM [falling, full curve]"
O=C(/C=C/c1ccccc1F)N1CCN(c2ccccn2)CC1,2.71%,"3.26 µM [rising, single point]",–
COc1ccc(N2CCN(C(=O)c3ccc(OCc4c(C)noc4C)c(OC)c3)CC2)cc1,171%,–,"23.1 µM [rising, single point]"
O=C(CC1SC(=O)NC1=O)Nc1ccc(Cl)cc1 (stereo not drawn),3.24%,–,–
COC(=O)c1ccc(C(=S)N2CCOCC2)cc1,–,"23.1 µM [falling, partial curve]",–
Cc1cccc(N2NC(=O)/C(=C/c3ccc(-c4ccc(Cl)c(C(=O)O)c4)o3)C2=O)c1,9.6%,"0.58 µM [falling, single point]",–
O=C(N/N=C/c1oc(O)c2ccccc12)c1ccccc1,-3.19%,"6.51 µM [falling, single point]",–
CN(C)S(=O)(=O)c1cccc(COC(=O)c2cccnc2Cl)c1,9.46%,"4.11 µM [falling, full curve]","0.103 µM [rising, full curve, poor fit]"
Cc1ccc(SC(CC(=O)c2ccc(C(C)(C)C)cc2)C(=O)O)cc1 (stereo not drawn),-22.5%,"0.58 µM [falling, full curve]","0.651 µM [falling, full curve, poor fit]"
CN(/N=C/c1ccc(O)cc1O)c1nc(-c2ccccc2)cc(-c2ccccc2)n1,-59%,"29.1 µM [falling, single point]","18.4 µM [falling, single point]"
CC(=O)C1=C(O)C(=O)N(Cc2ccccc2)C1c1ccco1 (stereo not drawn),-30.2%,"23.1 µM [falling, partial curve]","7.31 µM [falling, partial curve, poor fit]"
O=S(=O)(c1ccc(Cl)nc1)N1CCN(Cc2ccc3c(c2)OCO3)CC1,41.8%,–,–
COc1ccc(OCC(=O)N2CCN(C(=O)COc3ccc(Br)cc3)CC2)cc1,–,"2.91 µM [rising, partial curve]",–
COc1ccc(N2C(=O)C3CCCN3C2c2ccccc2OC)cc1 (stereo not drawn),8.16%,–,"0.92 µM [rising, full curve, poor fit]"

# A section from further up, as a working copy:
Compound,cell number change,AC50 [1],AC50 [2]
O=C(COc1ccc(C2SCCS2)cc1)NNC(=O)C(Cl)Cl,20.4%,"51.7 µM [rising, partial curve]",–
NC(=O)c1ccc(N=Cc2ccc([N+](=O)[O-])s2)cc1,-78.5%,–,"23.1 µM [falling, single point]"

# An excerpt of these results, as tab-separated lines.
Compound	cell number change	AC50 [1]	AC50 [2]
CC1(C)NC(=O)N(CC(=O)OCC(=O)Nc2cccc(F)c2)C1=O	-64.7%	–	3.66 µM [falling, full curve]
O=C(/C=C/c1ccccc1F)N1CCN(c2ccccn2)CC1	2.71%	3.26 µM [rising, single point]	–

# (cont.)

Compound,cell number change,AC50 [1],AC50 [2]
Cc1[nH]nc2c1C(c1ccco1)C(C#N)=C(N)O2 (stereo not drawn),30.5%,"29.1 µM [rising, single point]","29.1 µM [rising, single point]"
CC(C)(C)c1nnc(NC(=O)CCS(=O)(=O)c2ccccc2)s1,3.95%,"0.398 µM [rising, full curve, poor fit]",–
CC(=O)Oc1ccc2ccccc2c1C(NC(=O)Cc1ccccc1)c1ccccc1Cl (stereo not drawn),–,–,"4.61 µM [falling, partial curve, poor fit]"
CC(C)NC(=O)C(=O)NC1CCCCCC1,-4.07%,–,–
Cc1cccc(C(=O)N2CCN(Cc3ccc4c(c3)OCO4)CC2)c1,-5.31%,–,–
Cc1nn(C(C)C(=O)NCCCN2CCCCCC2)c(=O)c2cc3sccc3n12 (stereo not drawn),21.5%,–,–
CCc1ccccc1NC(=O)CN1CCN(C(=O)C2CCN(C(=O)/C=C/c3ccccc3)CC2)CC1,0.82%,–,–
Cc1cc(C)cc(N(CC(=O)Nc2ccc(Br)cc2)S(=O)(=O)c2c(C)[nH]c(=O)[nH]c2=O)c1,10.3%,–,–
O=C(Nc1ccccc1C(=O)Nc1ccc(Cl)cc1)c1cccnc1,11.9%,–,–
Cc1cccc(-n2cc(CNCCc3nc(C)cc(C)n3)c(-c3cccc(F)c3)n2)c1,-4.13%,–,"0.58 µM [rising, full curve, poor fit]"
COc1ccc(/C=C/C=N/NC(=O)COc2ccc(OC)cc2)cc1,24.9%,"4.61 µM [rising, full curve, poor fit]",–
CN(CC(=O)Nc1ccc(N2CCOCC2)cc1)C(=O)c1ccc(O)c(Cl)c1,–,"29.1 µM [rising, partial curve, poor fit]",–
COc1ccccc1C(=O)NCCC(=O)NCCOc1ccccc1,-11.5%,"14.1 µM [falling, single point]",–
O=C(CCN1CCN(S(=O)(=O)c2cccc([N+](=O)[O-])c2)CC1)Nc1ccccc1F,12.4%,"29.1 µM [falling, partial curve, poor fit]",–
COc1ccc(Br)cc1C(=O)Nc1ccc(C(=O)O)cc1,-14.5%,"0.112 µM [falling, full curve, poor fit]",–
OCCOc1cccc(CN2CCC(CO)(CCOc3ccccc3)CC2)c1,20%,"6.51 µM [falling, single point]",–
CCCCC(=O)Nc1cccc(-c2nnc(-c3ccccc3)o2)c1,–,"0.0517 µM [rising, full curve, poor fit]","0.0731 µM [rising, full curve]"
COc1cc2c(cc1OC)CN(C(=O)CNS(=O)(=O)c1ccc(C)c(C)c1)CC2,11.7%,"1.16 µM [rising, single point]",–
CC(C)(C)c1ccc(OCCC(=O)OCC(=O)NC2CCS(=O)(=O)C2)cc1 (stereo not drawn),-25%,"0.00461 µM [falling, full curve, poor fit]","3.26 µM [falling, full curve, poor fit]"
